From the supplement of paper PMC7666118
The other results are listed elsewhere or left out.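 How the source made its calls: active = dose-dependent thermal stabilisation significant by F-test of dose-response against flat model at 10% FDR; inactive = not significant.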

Chains of the proteins cited; added tags and fusions are not shown. Lines headed by an entry give the natural chain unless they say otherwise; changes in a name come on top.
UniProt Q9BUR4: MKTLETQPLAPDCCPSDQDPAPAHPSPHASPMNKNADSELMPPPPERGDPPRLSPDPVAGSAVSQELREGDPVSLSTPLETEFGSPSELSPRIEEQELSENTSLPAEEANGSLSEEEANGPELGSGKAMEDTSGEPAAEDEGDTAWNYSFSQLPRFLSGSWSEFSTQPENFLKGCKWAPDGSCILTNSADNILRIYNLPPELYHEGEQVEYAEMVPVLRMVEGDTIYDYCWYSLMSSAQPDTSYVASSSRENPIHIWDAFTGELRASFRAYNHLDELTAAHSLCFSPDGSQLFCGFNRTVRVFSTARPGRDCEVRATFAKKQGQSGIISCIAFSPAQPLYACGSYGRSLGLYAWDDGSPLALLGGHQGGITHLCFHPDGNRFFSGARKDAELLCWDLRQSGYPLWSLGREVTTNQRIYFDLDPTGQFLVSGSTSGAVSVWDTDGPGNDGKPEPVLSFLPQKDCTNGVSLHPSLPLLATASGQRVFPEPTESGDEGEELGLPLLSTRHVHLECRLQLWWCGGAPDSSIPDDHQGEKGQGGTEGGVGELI
UniProt Q8TAF3: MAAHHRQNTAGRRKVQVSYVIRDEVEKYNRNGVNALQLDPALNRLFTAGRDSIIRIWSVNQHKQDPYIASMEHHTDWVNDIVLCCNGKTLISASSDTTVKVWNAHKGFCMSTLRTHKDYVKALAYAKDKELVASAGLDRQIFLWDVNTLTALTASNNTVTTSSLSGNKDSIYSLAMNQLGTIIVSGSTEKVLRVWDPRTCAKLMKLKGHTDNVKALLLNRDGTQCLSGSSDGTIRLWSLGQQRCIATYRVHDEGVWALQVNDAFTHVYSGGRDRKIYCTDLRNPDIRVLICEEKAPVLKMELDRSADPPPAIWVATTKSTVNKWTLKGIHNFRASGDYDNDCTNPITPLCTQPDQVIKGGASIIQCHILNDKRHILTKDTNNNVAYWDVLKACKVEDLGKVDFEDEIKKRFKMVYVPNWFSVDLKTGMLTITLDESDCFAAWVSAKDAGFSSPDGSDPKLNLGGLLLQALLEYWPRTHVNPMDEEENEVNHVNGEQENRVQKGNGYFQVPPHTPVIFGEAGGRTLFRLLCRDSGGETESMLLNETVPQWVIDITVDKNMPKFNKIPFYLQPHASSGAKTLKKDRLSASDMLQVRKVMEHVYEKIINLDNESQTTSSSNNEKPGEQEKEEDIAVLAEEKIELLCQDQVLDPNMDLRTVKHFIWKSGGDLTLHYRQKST
UniProt Q8IWV7: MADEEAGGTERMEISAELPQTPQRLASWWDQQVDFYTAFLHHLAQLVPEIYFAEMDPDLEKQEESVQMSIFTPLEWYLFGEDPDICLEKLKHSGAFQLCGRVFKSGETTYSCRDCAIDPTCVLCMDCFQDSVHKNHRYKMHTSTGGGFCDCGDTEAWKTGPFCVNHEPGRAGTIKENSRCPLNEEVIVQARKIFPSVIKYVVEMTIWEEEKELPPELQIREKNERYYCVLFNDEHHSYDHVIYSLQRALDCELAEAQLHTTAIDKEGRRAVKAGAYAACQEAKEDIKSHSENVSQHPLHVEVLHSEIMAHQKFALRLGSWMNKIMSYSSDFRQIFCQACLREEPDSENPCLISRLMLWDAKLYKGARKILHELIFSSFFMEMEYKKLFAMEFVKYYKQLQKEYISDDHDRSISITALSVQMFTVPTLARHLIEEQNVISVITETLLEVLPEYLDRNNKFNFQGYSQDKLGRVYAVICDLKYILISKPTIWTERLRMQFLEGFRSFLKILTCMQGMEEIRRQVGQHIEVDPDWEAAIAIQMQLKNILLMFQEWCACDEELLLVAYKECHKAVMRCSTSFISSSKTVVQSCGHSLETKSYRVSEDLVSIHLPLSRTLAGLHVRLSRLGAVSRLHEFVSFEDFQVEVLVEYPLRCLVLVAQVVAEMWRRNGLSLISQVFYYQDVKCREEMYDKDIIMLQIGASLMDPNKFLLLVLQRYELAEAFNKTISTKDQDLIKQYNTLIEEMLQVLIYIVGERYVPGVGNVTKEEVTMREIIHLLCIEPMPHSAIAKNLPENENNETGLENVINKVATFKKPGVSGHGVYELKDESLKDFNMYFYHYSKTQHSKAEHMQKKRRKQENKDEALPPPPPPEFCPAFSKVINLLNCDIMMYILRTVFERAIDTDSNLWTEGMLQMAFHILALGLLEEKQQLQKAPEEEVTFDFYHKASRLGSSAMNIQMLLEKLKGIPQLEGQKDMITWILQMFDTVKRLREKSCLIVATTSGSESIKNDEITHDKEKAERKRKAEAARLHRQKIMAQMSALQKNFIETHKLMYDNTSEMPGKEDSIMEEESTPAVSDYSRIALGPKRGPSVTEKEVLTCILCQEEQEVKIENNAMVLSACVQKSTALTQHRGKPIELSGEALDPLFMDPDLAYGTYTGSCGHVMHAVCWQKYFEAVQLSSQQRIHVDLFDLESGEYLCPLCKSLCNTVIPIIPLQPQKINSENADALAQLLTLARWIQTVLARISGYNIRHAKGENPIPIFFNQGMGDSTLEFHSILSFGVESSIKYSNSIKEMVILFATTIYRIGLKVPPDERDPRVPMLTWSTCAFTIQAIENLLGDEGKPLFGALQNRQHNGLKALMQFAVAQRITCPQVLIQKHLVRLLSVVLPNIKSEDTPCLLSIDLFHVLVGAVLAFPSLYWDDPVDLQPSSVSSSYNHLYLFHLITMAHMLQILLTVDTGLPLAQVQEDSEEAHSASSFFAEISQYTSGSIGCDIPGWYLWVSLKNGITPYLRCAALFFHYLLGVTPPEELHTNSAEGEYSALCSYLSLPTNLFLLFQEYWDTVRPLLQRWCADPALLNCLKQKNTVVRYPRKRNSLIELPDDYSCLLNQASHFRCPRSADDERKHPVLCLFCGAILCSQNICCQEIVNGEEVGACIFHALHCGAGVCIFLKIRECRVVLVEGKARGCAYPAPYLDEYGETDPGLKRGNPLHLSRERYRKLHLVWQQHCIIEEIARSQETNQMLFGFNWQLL
UniProt Q5VIR6: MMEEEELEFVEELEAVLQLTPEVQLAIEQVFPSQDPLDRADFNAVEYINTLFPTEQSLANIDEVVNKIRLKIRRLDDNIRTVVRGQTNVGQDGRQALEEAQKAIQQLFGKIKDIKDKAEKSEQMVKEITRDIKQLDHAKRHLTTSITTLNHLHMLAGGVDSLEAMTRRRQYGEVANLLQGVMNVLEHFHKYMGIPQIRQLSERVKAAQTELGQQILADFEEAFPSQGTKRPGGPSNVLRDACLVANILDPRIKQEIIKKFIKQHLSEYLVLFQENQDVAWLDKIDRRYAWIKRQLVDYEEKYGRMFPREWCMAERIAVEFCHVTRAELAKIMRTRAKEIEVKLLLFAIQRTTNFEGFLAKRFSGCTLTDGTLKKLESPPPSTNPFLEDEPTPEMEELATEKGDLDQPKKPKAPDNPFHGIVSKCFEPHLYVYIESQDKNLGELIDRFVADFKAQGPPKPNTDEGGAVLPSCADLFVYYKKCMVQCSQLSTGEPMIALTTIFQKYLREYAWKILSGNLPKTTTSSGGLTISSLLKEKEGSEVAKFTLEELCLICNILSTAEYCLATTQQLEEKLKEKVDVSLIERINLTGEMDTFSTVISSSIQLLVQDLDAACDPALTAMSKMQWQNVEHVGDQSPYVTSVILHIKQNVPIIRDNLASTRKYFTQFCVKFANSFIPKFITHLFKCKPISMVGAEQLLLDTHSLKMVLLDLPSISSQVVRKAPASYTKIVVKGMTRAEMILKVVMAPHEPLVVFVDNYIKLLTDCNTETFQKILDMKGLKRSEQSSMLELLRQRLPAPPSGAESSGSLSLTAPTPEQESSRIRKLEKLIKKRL
UniProt P49754: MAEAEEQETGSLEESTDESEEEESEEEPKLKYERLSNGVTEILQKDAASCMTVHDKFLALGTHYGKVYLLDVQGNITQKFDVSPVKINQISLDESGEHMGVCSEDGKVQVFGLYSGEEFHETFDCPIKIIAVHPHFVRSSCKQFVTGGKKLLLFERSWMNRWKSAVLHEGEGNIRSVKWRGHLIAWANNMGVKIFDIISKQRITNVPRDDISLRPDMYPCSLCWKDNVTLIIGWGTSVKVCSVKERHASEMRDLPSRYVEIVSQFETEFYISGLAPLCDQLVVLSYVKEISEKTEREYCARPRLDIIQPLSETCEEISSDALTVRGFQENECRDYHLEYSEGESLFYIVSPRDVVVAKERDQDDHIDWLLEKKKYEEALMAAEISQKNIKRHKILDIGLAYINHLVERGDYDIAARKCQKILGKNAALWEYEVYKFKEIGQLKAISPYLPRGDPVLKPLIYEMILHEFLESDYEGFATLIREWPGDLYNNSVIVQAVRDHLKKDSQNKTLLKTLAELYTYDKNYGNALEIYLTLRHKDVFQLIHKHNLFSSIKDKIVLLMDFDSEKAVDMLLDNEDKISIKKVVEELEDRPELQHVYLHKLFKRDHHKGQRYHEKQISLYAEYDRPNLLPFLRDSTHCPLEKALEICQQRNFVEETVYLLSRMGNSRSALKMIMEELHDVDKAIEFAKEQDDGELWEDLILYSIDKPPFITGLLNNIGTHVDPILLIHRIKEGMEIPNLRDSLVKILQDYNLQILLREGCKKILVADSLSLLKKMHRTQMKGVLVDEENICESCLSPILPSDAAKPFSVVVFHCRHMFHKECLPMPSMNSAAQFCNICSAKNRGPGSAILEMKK
UniProt P13051, whole entry: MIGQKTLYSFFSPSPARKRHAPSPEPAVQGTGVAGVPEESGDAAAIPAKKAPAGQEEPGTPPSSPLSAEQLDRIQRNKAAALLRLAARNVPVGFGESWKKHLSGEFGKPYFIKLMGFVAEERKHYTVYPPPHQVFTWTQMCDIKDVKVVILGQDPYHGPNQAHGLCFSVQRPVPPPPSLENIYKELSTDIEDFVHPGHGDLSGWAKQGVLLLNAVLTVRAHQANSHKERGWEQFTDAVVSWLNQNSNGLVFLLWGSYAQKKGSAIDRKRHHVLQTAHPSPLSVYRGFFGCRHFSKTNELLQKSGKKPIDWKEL
UniProt A8MPS7: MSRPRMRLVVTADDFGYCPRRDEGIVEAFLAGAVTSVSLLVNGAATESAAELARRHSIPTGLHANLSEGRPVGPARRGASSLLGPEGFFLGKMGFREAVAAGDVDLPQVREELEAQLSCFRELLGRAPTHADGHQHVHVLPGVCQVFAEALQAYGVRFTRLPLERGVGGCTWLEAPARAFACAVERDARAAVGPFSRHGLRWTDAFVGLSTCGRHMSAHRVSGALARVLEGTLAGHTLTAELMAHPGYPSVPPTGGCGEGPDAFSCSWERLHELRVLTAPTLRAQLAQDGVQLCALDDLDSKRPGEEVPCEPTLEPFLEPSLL
UniProt Q15819: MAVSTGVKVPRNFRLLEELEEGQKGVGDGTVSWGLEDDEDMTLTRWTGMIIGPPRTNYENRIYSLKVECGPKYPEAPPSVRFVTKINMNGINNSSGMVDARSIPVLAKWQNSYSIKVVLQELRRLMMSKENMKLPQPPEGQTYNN
UniProt O15498: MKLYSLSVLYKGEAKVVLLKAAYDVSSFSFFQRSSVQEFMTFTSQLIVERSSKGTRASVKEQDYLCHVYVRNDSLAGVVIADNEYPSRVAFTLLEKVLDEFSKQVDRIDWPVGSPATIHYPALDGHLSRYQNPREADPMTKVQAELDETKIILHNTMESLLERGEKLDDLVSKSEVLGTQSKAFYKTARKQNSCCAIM
UniProt Q96AJ9: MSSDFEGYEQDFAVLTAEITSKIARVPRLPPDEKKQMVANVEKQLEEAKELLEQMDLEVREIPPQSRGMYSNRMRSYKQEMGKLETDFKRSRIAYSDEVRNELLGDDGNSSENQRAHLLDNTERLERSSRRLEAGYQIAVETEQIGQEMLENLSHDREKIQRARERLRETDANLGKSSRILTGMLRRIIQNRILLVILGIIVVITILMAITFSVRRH
UniProt Q712K3: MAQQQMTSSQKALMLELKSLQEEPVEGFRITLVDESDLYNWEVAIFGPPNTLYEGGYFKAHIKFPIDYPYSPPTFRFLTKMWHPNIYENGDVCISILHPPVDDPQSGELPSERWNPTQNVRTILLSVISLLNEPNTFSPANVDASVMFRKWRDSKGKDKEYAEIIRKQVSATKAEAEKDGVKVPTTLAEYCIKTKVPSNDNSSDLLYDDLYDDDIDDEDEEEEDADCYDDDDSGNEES
UniProt O94888: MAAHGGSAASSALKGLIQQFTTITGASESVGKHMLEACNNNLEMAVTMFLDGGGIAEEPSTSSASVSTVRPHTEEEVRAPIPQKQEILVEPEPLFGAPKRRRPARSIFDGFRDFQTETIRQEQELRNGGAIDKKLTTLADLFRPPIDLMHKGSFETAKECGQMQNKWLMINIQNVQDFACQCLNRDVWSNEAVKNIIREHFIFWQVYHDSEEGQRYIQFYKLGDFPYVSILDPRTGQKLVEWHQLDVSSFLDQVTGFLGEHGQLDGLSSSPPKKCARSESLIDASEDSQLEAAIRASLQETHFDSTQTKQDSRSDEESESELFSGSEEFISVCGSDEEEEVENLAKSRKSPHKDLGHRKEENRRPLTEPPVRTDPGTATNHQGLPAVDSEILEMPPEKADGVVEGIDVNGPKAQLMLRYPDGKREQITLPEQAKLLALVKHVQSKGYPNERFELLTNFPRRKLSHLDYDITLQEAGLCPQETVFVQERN

compound: Nc1nc2c(ncn2[C@@H]2O[C@H](COP(=O)(O)OP(=O)(O)OP(=O)(O)O)[C@@H](O)[C@H]2O)c(=O)[nH]1; assay: dose-dependent thermal stabilisation call (2D-TPP, DLPTP, 10% FDR) (binary (1 = stabilised)); higher = stabilised by the compound; conditions: system: Jurkat gel-filtered lysate; concentration range 1-500 µM

Target | dose-dependent thermal stabilisation call
WRAP53 (UniProt Q9BUR4) | inactive: 0
UNC45A (UniProt Q9H3U1) | inactive: 0
UVRAG (UniProt Q9P2Y5) | inactive: 0
ZBTB21 (UniProt Q9ULJ3) | inactive: 0
ZDHHC5 (UniProt Q9C0B5) | inactive: 0
WDR48 (UniProt Q8TAF3) | inactive: 0
UNC13D (UniProt Q70J99) | inactive: 0
WASH2P (UniProt Q6VEQ5) | inactive: 0
UBR1 (UniProt Q8IWV7) | inactive: 0
UBR5 (UniProt O95071) | inactive: 0
ZBED8 (UniProt Q8IZ13) | inactive: 0
UXT (UniProt Q9UBK9) | inactive: 0
UBR2 (UniProt Q8IWV8) | inactive: 0
USF2 (UniProt Q15853) | inactive: 0
USF1 (UniProt P22415) | inactive: 0
VPS53 (UniProt Q5VIR6) | active: 1
YY1 (UniProt P25490) | inactive: 0
UROD (UniProt P06132) | inactive: 0

Target | dose-dependent thermal stabilisation call
VPS41 (UniProt P49754) | inactive: 0
UNG (UniProt P13051) | active: 1
WDR6 (UniProt Q9NNW5) | inactive: 0
YDJC (UniProt A8MPS7) | inactive: 0
UBE2G1 (UniProt P62253) | inactive: 0
ZBTB7A (UniProt O95365) | inactive: 0
UBE2H (UniProt P62256) | inactive: 0
UBE2V2 (UniProt Q15819) | inactive: 0
USP7 (UniProt Q93009) | inactive: 0
YKT6 (UniProt O15498) | inactive: 0
VTI1A (UniProt Q96AJ9) | inactive: 0
UHRF1 (UniProt Q96T88) | inactive: 0
XPO6 (UniProt Q96QU8) | inactive: 0
ZER1 (UniProt Q7Z7L7) | inactive: 0
UBE2R2 (UniProt Q712K3) | active: 1
UQCRH (UniProt P07919) | inactive: 0
VARS (UniProt P26640) | inactive: 0
UBXN7 (UniProt O94888) | inactive: 0

Reformatted: entries from further up
Target	dose-dependent thermal stabilisation call
UNG (UniProt P13051)	active: 1
ZER1 (UniProt Q7Z7L7)	inactive: 0
